# In PMC8384837:
# Where a chain is given by its changes, count along the chain named. This is one part of the list. For some assays here: At the low end of the ranking, values are background and their order means little.
# Experiments:
# Conditions in all cases: yeast three-hybrid, YBZ-1, SC-Leu-His + 0.5 mM 3-AT, 4 days
# [1] = target: T1, PUM1 PUF domain R3-ART C935A + Q939T (Homo sapiens) (UniProt Q14671)
# T1 sequence: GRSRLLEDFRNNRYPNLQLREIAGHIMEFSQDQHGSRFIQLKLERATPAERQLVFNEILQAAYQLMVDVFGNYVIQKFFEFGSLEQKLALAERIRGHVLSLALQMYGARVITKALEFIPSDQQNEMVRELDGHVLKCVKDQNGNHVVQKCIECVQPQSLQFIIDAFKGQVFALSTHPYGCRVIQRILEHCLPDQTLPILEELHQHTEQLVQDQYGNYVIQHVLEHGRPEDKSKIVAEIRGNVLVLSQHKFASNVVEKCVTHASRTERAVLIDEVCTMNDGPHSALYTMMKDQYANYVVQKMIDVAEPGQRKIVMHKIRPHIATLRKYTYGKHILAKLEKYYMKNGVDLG
# [2] = target: T2, PUM1 PUF domain R3-DAK C935D + R936A + Q939K (Homo sapiens) (UniProt Q14671)
# T2 sequence: T1 sequence with A108D, R109A, T112K
# [3] = target: T3, PUM1 PUF domain R3-DYV C935D + R936Y + Q939V (Homo sapiens) (UniProt Q14671)
# T3 sequence: T1 sequence with A108D, R109Y, T112V
# [4] = target: T4, PUM1 PUF domain R3-EFL C935E + R936F + Q939L (Homo sapiens) (UniProt Q14671)
# T4 sequence: T1 sequence with A108E, R109F, T112L
# [5] = target: T5, PUM1 PUF domain R3-EWL C935E + R936W + Q939L (Homo sapiens) (UniProt Q14671)
# T5 sequence: T1 sequence with A108E, R109W, T112L
# [6] = target: T6, PUM1 PUF domain R3-GFL C935G + R936F + Q939L (Homo sapiens) (UniProt Q14671)
# T6 sequence: T1 sequence with A108G, R109F, T112L
# [7] = target: T7, PUM1 PUF domain R3-GPC C935G + R936P + Q939C (Homo sapiens) (UniProt Q14671)
# T7 sequence: T1 sequence with A108G, R109P, T112C
# [8] = target: T8, PUM1 PUF domain R3-RAA C935R + R936A + Q939A (Homo sapiens) (UniProt Q14671)
# T8 sequence: T1 sequence with A108R, R109A, T112A
# [9] = target: T9, PUM1 PUF domain R3-RAG C935R + R936A + Q939G (Homo sapiens) (UniProt Q14671)
# T9 sequence: T1 sequence with A108R, R109A, T112G
# [10] = target: T10, PUM1 PUF domain R3-RPA C935R + R936P + Q939A (Homo sapiens) (UniProt Q14671)
# T10 sequence: T1 sequence with A108R, R109P, T112A
# [11] = target: T11, PUM1 PUF domain R3-RPK C935R + R936P + Q939K (Homo sapiens) (UniProt Q14671)
# T11 sequence: T1 sequence with A108R, R109P, T112K
# [12] = target: T12, PUM1 PUF domain R3-RQG C935R + R936Q + Q939G (Homo sapiens) (UniProt Q14671)
# T12 sequence: T1 sequence with A108R, R109Q, T112G
# [13] = target: T13, PUM1 PUF domain R3-RRM C935R + Q939M (Homo sapiens) (UniProt Q14671)
# T13 sequence: T1 sequence with A108R, T112M
# [14] = target: T14, PUM1 PUF domain R3-RSF C935R + R936S + Q939F (Homo sapiens) (UniProt Q14671)
# T14 sequence: T1 sequence with A108R, R109S, T112F
# [15] = target: T15, PUM1 PUF domain R3-RTI C935R + R936T + Q939I (Homo sapiens) (UniProt Q14671)
# T15 sequence: T1 sequence with A108R, R109T, T112I
# [16] = target: T16, PUM1 PUF domain R3-RTM C935R + R936T + Q939M (Homo sapiens) (UniProt Q14671)
# T16 sequence: T1 sequence with A108R, R109T, T112M
# [17] = target: T17, PUM1 PUF domain R3-RTW C935R + R936T + Q939W (Homo sapiens) (UniProt Q14671)
# T17 sequence: T1 sequence with A108R, R109T, T112W
# [18] = target: T18, PUM1 PUF domain R3-RVS C935R + R936V + Q939S (Homo sapiens) (UniProt Q14671)
# T18 sequence: T1 sequence with A108R, R109V, T112S
# [19] = target: T19, PUM1 PUF domain R3-TTR C935T + R936T + Q939R (UniProt Q14671)
# T19 sequence: T1 sequence with A108T, R109T, T112R
# [20] = target: T20, PUM1 PUF domain R3-VYP C935V + R936Y + Q939P (UniProt Q14671)
# T20 sequence: T1 sequence with A108V, R109Y, T112P
sequence,measurement,setting,value
GGCUAGAACUAGUGGAUCCCCCGGCGCCCGGCGGCUCGAGCCCGGGUAAGUGUAAGUAGUCUGCAUGCCGCCGGGCGCCAUGCCUGCAGGUCGACUCUAGAAAACAUG,binding signal (log2 enrichment (interaction score)),[1],0.03
same,binding signal (log2 enrichment (interaction score)),[2],-0.3
same,binding signal (log2 enrichment (interaction score)),[3],1.29
same,binding signal (log2 enrichment (interaction score)),[4],0.03
same,binding signal (log2 enrichment (interaction score)),[5],0.18
same,binding signal (log2 enrichment (interaction score)),[6],0.21
same,binding signal (log2 enrichment (interaction score)),[7],-0.31
same,binding signal (log2 enrichment (interaction score)),[8],0.2
same,binding signal (log2 enrichment (interaction score)),[9],0.36
same,binding signal (log2 enrichment (interaction score)),[10],0.21
same,binding signal (log2 enrichment (interaction score)),[11],0.03
same,binding signal (log2 enrichment (interaction score)),[12],-0.2
same,binding signal (log2 enrichment (interaction score)),[13],0.28
same,binding signal (log2 enrichment (interaction score)),[14],0.11
same,binding signal (log2 enrichment (interaction score)),[15],0.5
same,binding signal (log2 enrichment (interaction score)),[16],0.29
same,binding signal (log2 enrichment (interaction score)),[17],-0.12
same,binding signal (log2 enrichment (interaction score)),[18],-0.14
same,binding signal (log2 enrichment (interaction score)),[19],-4.35
same,binding signal (log2 enrichment (interaction score)),[20],< -7.55

# Given bar-delimited: part of the list above
sequence | measurement | setting | value
GGCUAGAACUAGUGGAUCCCCCGGCGCCCGGCGGCUCGAGCCCGGGUAAGUGUAAGUAGUCUGCAUGCCGCCGGGCGCCAUGCCUGCAGGUCGACUCUAGAAAACAUG | binding signal (log2 enrichment (interaction score)) | [4] | 0.03
same | binding signal (log2 enrichment (interaction score)) | [15] | 0.5
